This passage reports AC50 results from PubChem BioAssay AID1487 (National Center for Advancing Translational Sciences (NCATS), 2009).

This test can be described thus: qHTS Assay for Modulators of Lamin A Splicing. To be noted: HeLa LMNA splicing GFP/RFP minigene ratio, 48 h. A digest of the protocol: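 S3 HeLa stable clones carrying a lamin A-EGFP splicing minigene plus DsRed2 were seeded at 600 cells/well in Opti-MEM with 2% FBS, pin-dosed and incubated 48 h at 37°C. Acumen cytometry (488 nm) gave the GFP/RFP total-intensity ratio.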

Setting [1] is: measured here: RFP viability control channel.
Where [2] appears, read: measured here: GFP splicing reporter channel.

The list shows a part of the results. Shown are side measurements of this screen, not its main read-out; they come without a call. Most of these compounds were active or inconclusive in the main read-out, so they are no random draw. Words in brackets tell the shape of the fitted curve; partial curves, single points and poor fits give uncertain potencies.

For the compound `CSc1ccccc1NC(=O)C1C2CCC(C2)C1C(=O)O` (configuration not stated), the AC50 under setting [1] was 0.251 µM [falling, full curve, poor fit]. Take `Cc1ccc(S(=O)(=O)NCc2ccco2)c(C)c1C`: the AC50 under setting [1] is 12.6 µM [rising, partial curve, poor fit]. With `CCOc1ccc(Oc2nc(N(CC)CC)nc(N3CCOCC3)n2)nn1`, the AC50 under setting [2] is 20 µM [falling, single point].

For `O=C(c1ccc2c(c1)OCO2)C1CCCN(C(=O)c2cnn(Cc3ccccc3)c2)C1` (configuration not stated), the half-maximal activity concentration (AC50) under setting [1] was 0.891 µM [falling, partial curve]. Regarding `CCCCCCCCCCCCCCCCCCO`, the AC50 runs as follows: under setting [2], 35.5 µM [falling, single point]; under setting [1], 0.00251 µM [falling, full curve, poor fit].

Consider `O=C(NC(=S)Nc1ccc(CN2CCOCC2)cc1)c1cccc([N+](=O)[O-])c1`, for which the AC50 under setting [2] is 4.47 µM [falling, full curve, poor fit].

`O=C(CSc1nc2ccccc2n1CC(=O)Nc1ccc(F)cc1F)Nc1ccc(F)cc1`: under setting [1], the concentration at half-maximal activity (AC50) was 7.94 µM [falling, partial curve, poor fit]. On the same count and under the same terms, the figure for `CCn1c(C)cs/c1=N\C(=S)Nc1ccccc1C` is 10 µM [rising, partial curve]. On to `O=C(CCc1ccc(S(=O)(=O)NCc2ccccc2)cc1)N1CCN(Cc2ccc3c(c2)OCO3)CC1`, for which the AC50 is 14.1 µM [rising, partial curve] under setting [2] and 14.1 µM [rising, partial curve] under setting [1]. In the case of `C=CCOc1nc2c(c(=O)n(C)c(=O)n2C)n1Cc1ccccc1Cl`, the concentration at half-maximal activity (AC50) under setting [1] was 11.2 µM [rising, partial curve]. Consider `COc1cccc(Cn2c(=O)c(-c3cccc(C#N)c3)nc3cnc(OC)nc32)c1`, for which, under setting [2], the AC50 was 11.2 µM [falling, partial curve]. For `COc1cc(C=O)ccc1OCCCOc1ccccc1[N+](=O)[O-]`, under setting [1], the AC50 was 2.82 µM [rising, full curve, poor fit]. On to `C=CCC1C=CCC(CC=C)N1C(=O)c1ccccc1[N+](=O)[O-]` (configuration not stated), for which the AC50 under setting [2] is 14.1 µM [rising, partial curve] and the AC50 under setting [1] is 15.8 µM [rising, partial curve].

Consider `Cc1nc(-c2ccc(F)cc2)sc1CCNC(=O)c1ccccc1`, for which the half-maximal activity concentration (AC50) under setting [1] is 0.708 µM [falling, full curve, poor fit]. Regarding `O=C(c1csc2ccccc12)N1CCCCCC1`, the half-maximal activity concentration (AC50) by setting is: under setting [2], 14.1 µM [rising, single point]; under setting [1], 12.6 µM [rising, single point].

Take `CC1CC(C)CN(C(=S)Nc2ccc3nc4n(c(=O)c3c2)CCCCC4)C1` (configuration not stated): the concentration at half-maximal activity (AC50) under setting [1] was 15.8 µM [rising, single point].

With `O=C(O)c1ccc(COc2ccc3ccccc3c2/C=C2/NC(=O)N(c3ccccc3)C2=O)cc1`, under setting [2], the AC50 is 35.5 µM [rising, single point].

As for `CCOC(=O)c1cnc(-n2nc(C)cc2C)nc1NCc1ccccc1`, the AC50 by setting is: under setting [2], 7.08 µM [rising, partial curve]; under setting [1], 7.08 µM [rising, full curve]. With `N=c1n(Cc2ccccc2)c2ccccc2n1CC(O)c1ccccc1` (configuration not stated), the concentration at half-maximal activity (AC50) under setting [2] is 12.6 µM [rising, single point] and the concentration at half-maximal activity (AC50) under setting [1] is 14.1 µM [rising, partial curve, poor fit]. For `O=C(O)COc1ccc2oc3ccccc3c2c1`, the AC50 under setting [2] is 0.0141 µM [falling, full curve, poor fit] and the AC50 under setting [1] is 0.0126 µM [falling, full curve, poor fit]. Take `CCOC(=O)c1c(C)oc2nc(C)nc(N3CCN(c4ccc(C)cc4C)CC3)c12`: under setting [1], the half-maximal activity concentration (AC50) was 1 µM [falling, full curve, poor fit]. For `Cc1nnc(C)n1N1C(=O)c2cccc3cccc(c23)C1=O`, the AC50 under setting [2] is 3.55 µM [falling, full curve, poor fit] and the concentration at half-maximal activity (AC50) under setting [1] is 5.01 µM [falling, full curve, poor fit]. As for `COc1ccc(C2=NOC(C(=O)NCc3ccc(F)cc3)C2)cc1OC` (configuration not stated), under setting [1], the half-maximal activity concentration (AC50) was 7.94 µM [rising, partial curve].

With `CC1(C)O[C@@H]2C[C@H]3[C@@H]4CCC5=CC(=O)C=C[C@]5(C)[C@@]4(F)[C@@H](O)C[C@]3(C)[C@]2(C(=O)CO)O1`, the AC50 under setting [1] was 10 µM [rising, single point]. As for `CCN1c2ccccc2NC2N=C(OC)C(c3ccccc3)C21` (configuration not stated), the AC50 under setting [2] was 35.5 µM [falling, single point] and the concentration at half-maximal activity (AC50) under setting [1] is 35.5 µM [falling, single point]. As to `COc1cccc(-c2nccc(NCc3cccnc3)n2)c1`, the AC50 by setting is: under setting [2], 11.2 µM [falling, partial curve]; under setting [1], 14.1 µM [falling, partial curve].

For the compound `C[C@@H]([C@H](O)c1ccc(O)cc1)N1CCC(Cc2ccccc2)CC1`, under setting [2], the half-maximal activity concentration (AC50) was 1.12 µM [falling, partial curve, poor fit].

Turning to `COc1ccc(CC(=O)Nc2cccc(-c3nnc(-c4ccc(C)cc4)o3)c2)cc1OC`, the AC50 runs as follows: under setting [2], 3.98 µM [rising, single point]; under setting [1], 6.31 µM [rising, single point]. Regarding `COc1cccc(N(C(=O)CCl)C(C(=O)NCCc2ccccc2)c2cccs2)c1` (configuration not stated), the half-maximal activity concentration (AC50) is, setting by setting: under setting [2], 25.1 µM [falling, single point]; under setting [1], 35.5 µM [falling, single point]. With `Cc1ccc(C)n1-c1ncc(Br)cn1`, under setting [2], the AC50 is 0.0398 µM [falling, full curve, poor fit]. The same measure, in the same setting: with `Cc1cccc(/C=c2\s/c(=C\C(=O)C(C)(C)C)[nH]c2=O)c1` the figure was 31.6 µM [rising, single point]; with `COC(=O)CC(c1ccc(C(C)C)cc1)n1cccc1` (configuration not stated), 0.0126 µM [rising, full curve, poor fit]. As to `Cc1ccc(Oc2cc(C)nc(-c3ccccc3O)n2)cc1`, the AC50 under setting [2] is 15.8 µM [rising, single point] and the AC50 under setting [1] was 14.1 µM [rising, single point]. In the case of `CCCCC(=O)N(Cc1ccc(-c2ccccc2-c2nn[nH]n2)cc1)C(C(=O)O)C(C)C` (configuration not stated), the AC50 under setting [2] is 0.126 µM [falling, single point].

As for `O=C1CC(c2ccccc2)CN1C(=O)c1cccc([N+](=O)[O-])c1` (configuration not stated), under setting [1], the AC50 was 0.00447 µM [falling, full curve, poor fit]. Same read-out and setting: with `COc1cccc(NC(=S)N(CCCN2CCOCC2)Cc2cn(C)c3ccccc23)c1` the figure was 22.4 µM [rising, single point]. As for `Cc1nn(Cc2ccccc2)c(C)c1NC(=O)CSc1n[nH]c(C)c1[N+](=O)[O-]`, the AC50 under setting [2] was 0.178 µM [falling, full curve, poor fit]. For the compound `O=c1[nH]nc(SCc2ccccc2)c(=O)[nH]1`, under setting [1], the AC50 is 12.6 µM [rising, partial curve]. The same measure, in the same setting: with `CC(=O)c1c(C)cc(C)c(CSc2nc(C)cc(=O)[nH]2)c1C` the figure was 31.6 µM [rising, single point]. As for `Fc1ccccc1-c1[nH]ncc1-c1nnnn1-c1ccccc1`, the half-maximal activity concentration (AC50) reads like this: under setting [2], 3.55 µM [rising, single point]; under setting [1], 6.31 µM [rising, single point]. In the case of `CCOc1ccc(NC(=O)CNc2ccc(C)cc2Cl)cc1`, under setting [1], the AC50 is 35.5 µM [rising, single point]. On the same count and under the same terms, with `O=C(NCc1ccco1)c1ccc(COc2cc(Cl)ccc2Cl)cc1` the figure was 0.0126 µM [rising, full curve, poor fit]. With `O=C1OCCC1Sc1nc2ccccc2s1` (configuration not stated), the AC50 under setting [2] is 35.5 µM [falling, partial curve, poor fit] and the concentration at half-maximal activity (AC50) under setting [1] was 35.5 µM [falling, single point]. Take `CCc1ccc(-n2cnc3cc(C(=O)NCc4ccc(C)cc4)ccc32)cc1`: the half-maximal activity concentration (AC50) under setting [2] was 6.31 µM [falling, partial curve]. With `COc1ccc2c(OC)c3ccoc3nc2c1OC`, the AC50 reads like this: under setting [2], 0.000891 µM [falling, full curve, poor fit]; under setting [1], 3.16 µM [falling, partial curve, poor fit]. Regarding `CSc1ccc(CN(C)CC(=O)Nc2cccc(Br)c2)cc1`, under setting [1], the AC50 is 11.2 µM [rising, single point]. As to `CC(C)c1ccc(O)c(NC(=S)NC(=O)CCc2ccccc2)c1`, the AC50 under setting [2] is 12.6 µM [rising, partial curve, poor fit].

On to `CCOC(=O)c1c(C)[nH]c(CCC(=O)NCc2ccc(CC)cc2)c1C`, for which the AC50 under setting [2] was 0.126 µM [rising, full curve, poor fit] and the AC50 under setting [1] is 0.0251 µM [rising, full curve, poor fit]. As to `CCCOc1ccc(-c2cc(C(=O)NCC3CCCO3)c3ccccc3n2)cc1` (configuration not stated), the AC50 under setting [2] is 35.5 µM [rising, single point]. For `Cc1ccn2cc(-c3ccc(NS(=O)(=O)c4ccccc4)cc3)nc2c1`, the AC50 runs as follows: under setting [2], 15.8 µM [rising, partial curve]; under setting [1], 28.2 µM [rising, single point].

With `CNC(=O)CSc1nnc(C(C)C)n1C`, the half-maximal activity concentration (AC50) was 0.00891 µM [rising, full curve, poor fit] under setting [2] and 0.0126 µM [rising, full curve, poor fit] under setting [1].

Take `C=CCOc1c(Br)cc(/C=N/Nc2ccc(C(=O)O)cc2)cc1OCC`: the AC50 is 31.6 µM [rising, single point] under setting [2] and 35.5 µM [rising, single point] under setting [1].

Take `COc1ccc(C2CC(c3cccs3)=NN2c2ccc(F)cc2)cc1OC` (configuration not stated): under setting [1], the AC50 was 11.2 µM [rising, single point]. Consider `Cc1ccc(OCCOCCOc2ccc(Br)cc2/C=N\NC(=O)c2ccncc2)cc1`, for which the half-maximal activity concentration (AC50) by setting is: under setting [2], 14.1 µM [rising, single point]; under setting [1], 35.5 µM [rising, single point].

As to `CCOC(=O)C1=C(c2ccccc2)NC(SCC(=O)Nc2ccccc2C)=C(C#N)C1c1ccco1` (configuration not stated), under setting [1], the half-maximal activity concentration (AC50) is 10 µM [rising, single point]. As for `COc1cc(C(=O)NC2=NCCS2)ccc1OCc1c(C)noc1C`, the half-maximal activity concentration (AC50) under setting [2] was 35.5 µM [rising, single point].

By AC50 is commonly meant the midpoint of the concentration-response curve, whichever way the signal moves.
